Experiment: Phase I SAD study: time dependent change of uric acid levels in blood
Format: in vivo, human
Details: 30 mg single dose
Experimental: In this example, also the time dependent change of uric acid levels in blood were tested. At 30 mg single dose, the plasma levels of uric acid drop after 4 hours to a minimum and go back to baseline levels after 96 hours.

COc1cccc(-c2ccc(NC(=O)C3=C(C(=O)O)CCC3)c(F)c2)c1 [IMU-838]
time at which plasma levels of uric acid drop to a minimum: 4 h
time at which plasma levels of uric acid go back to baseline: 96 h
